Reference: paper PMC7060640
These are yes or no findings as the source states them, for the method shown. In cells and extracts the contact can be indirect. Some binding calls cover weakened binding; strength is not graded here.

Sequences of proteins named here, by UniProt entry; tags and fusion partners are left off.
UniProt O95180: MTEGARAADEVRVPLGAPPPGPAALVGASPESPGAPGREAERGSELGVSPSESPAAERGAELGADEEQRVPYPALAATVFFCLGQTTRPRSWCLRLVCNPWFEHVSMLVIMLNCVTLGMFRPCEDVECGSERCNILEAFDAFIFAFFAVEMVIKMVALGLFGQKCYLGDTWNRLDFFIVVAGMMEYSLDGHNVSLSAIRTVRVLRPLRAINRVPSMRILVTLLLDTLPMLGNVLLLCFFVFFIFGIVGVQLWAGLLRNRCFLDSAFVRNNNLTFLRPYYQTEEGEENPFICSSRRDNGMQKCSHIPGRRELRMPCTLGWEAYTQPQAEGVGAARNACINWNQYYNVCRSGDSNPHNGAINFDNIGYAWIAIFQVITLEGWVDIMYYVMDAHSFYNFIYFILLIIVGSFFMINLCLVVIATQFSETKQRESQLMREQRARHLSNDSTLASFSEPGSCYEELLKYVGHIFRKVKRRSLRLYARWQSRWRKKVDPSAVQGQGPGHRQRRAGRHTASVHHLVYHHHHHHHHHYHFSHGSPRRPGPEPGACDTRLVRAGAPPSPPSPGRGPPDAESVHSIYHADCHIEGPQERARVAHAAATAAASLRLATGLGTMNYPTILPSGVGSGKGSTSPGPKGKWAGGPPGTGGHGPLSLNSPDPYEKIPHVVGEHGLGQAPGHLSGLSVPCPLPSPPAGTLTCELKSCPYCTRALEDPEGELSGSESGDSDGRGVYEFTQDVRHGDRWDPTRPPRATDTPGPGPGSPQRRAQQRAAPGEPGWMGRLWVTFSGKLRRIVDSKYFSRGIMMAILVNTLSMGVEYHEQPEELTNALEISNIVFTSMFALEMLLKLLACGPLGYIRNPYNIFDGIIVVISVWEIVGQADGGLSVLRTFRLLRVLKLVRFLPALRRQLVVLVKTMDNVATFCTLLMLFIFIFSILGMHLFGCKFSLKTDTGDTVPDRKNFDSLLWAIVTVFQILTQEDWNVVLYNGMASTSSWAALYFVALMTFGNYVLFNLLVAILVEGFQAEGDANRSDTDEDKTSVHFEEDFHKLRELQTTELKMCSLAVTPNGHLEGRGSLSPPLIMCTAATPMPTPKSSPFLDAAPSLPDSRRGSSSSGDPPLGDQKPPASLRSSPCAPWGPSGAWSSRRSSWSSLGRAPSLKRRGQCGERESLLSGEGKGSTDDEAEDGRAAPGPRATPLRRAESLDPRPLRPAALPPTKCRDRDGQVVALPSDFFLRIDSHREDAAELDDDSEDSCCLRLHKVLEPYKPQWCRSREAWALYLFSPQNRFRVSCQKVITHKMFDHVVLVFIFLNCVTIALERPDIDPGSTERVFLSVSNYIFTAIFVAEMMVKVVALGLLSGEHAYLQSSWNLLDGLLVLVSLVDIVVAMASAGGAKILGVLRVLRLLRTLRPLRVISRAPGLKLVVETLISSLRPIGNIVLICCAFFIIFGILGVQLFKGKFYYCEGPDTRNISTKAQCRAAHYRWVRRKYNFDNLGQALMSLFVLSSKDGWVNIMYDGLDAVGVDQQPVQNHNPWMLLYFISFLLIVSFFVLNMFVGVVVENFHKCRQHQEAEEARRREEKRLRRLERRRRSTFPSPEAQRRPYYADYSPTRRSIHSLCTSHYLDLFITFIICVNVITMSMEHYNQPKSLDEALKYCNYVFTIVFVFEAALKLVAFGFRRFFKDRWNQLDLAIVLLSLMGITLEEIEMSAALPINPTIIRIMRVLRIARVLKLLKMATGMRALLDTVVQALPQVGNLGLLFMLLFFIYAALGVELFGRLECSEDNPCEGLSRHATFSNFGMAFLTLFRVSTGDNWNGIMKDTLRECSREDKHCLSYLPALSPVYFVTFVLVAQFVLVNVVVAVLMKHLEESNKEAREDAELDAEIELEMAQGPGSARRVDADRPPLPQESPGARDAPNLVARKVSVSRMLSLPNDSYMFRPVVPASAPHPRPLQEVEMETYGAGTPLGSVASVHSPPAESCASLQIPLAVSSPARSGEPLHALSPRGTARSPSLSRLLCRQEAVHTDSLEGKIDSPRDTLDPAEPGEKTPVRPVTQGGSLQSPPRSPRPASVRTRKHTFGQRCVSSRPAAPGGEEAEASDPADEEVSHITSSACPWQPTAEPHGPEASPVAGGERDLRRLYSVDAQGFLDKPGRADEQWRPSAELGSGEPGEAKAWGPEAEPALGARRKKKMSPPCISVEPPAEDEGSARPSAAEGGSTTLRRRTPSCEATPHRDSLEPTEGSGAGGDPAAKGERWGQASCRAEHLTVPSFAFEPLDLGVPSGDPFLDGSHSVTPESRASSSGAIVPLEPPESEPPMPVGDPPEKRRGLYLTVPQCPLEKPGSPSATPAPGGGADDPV

Target: Cav3.2 T-type calcium channel (Myc-tagged and GFP-tagged copies) (human) (UniProt O95180)
Experiment: co-IP; lysates of tsA-201 cells co-expressing Myc-tagged and GFP-tagged Cav3.2; 3 h with biotinylated mouse monoclonal anti-Myc antibody, then 45 min with streptavidin beads at 4 °C; washed with PBS/Tween-20; immunoblot with anti-GFP

With “Cav3.2 T-type calcium channel (Myc-tagged and GFP-tagged copies) (from UniProt O95180 1-2353)” the binding was “binds”.
